Data on one molecule can be found in BindingDB's records for doi:10.1002/1098-2396(20001215)38:4 (University of North Texas, 2000).

Chains of the proteins cited; added tags and fusions are not shown.
UniProt P61169, whole entry: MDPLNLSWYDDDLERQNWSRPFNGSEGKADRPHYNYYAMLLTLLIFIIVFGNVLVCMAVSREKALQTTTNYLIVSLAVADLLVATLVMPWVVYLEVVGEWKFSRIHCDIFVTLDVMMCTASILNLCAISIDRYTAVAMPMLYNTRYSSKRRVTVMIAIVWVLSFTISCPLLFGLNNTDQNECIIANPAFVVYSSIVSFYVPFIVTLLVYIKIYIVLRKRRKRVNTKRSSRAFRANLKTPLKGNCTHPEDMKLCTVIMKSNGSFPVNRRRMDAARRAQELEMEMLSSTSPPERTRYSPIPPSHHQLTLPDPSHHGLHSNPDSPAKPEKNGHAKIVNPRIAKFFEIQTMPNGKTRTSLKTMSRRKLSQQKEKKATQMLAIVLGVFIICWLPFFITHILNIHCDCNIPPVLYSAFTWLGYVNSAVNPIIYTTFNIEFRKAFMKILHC

This assay deals with D(2) dopamine receptor (Rattus norvegicus, UniProt P61169).

`CC(C)NC[C@H](O)COc1cccc2ccccc12` [Propanolol,(+/-)] yielded a Ki above 10 µM.
